# From PubChem BioAssay AID2685 (National Center for Advancing Translational Sciences (NCATS), 2010)
# The other results are listed elsewhere or left out. These are further read-outs of the screen, such as a control signal, another cell line or another target. No call is given for them. Most of these compounds were active or inconclusive in the main read-out, so they are no random draw. The note in brackets gives the kind of curve behind each potency; many fits are weak.
# Test: qHTS Assay for Lipid Storage Modulators in Drosophila S3 Cells;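 for cell number change: cells counted by Cell Tracker Red CMTPX staining in the red channel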
# Details: BODIPY lipid droplet fluorescence, 18-24 h; for cell number change: measured here: cell count max response, cells fed with added oleic acid
# Outline: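 Drosophila S3 cells loaded with oleic acid (400 uM, as added) and compounds at several concentrations; lipid droplets imaged by 488-nm laser-scanning cytometry, 500–530 nm intensity and object ratio to cell channel. Percent activity normalized to 20 uM Triacsin C.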
# [1] = measured here: cell number channel AC50, cells fed with added oleic acid
# [2] = measured here: lipid fluorescence (Fed channel) AC50, cells fed with added oleic acid
SMILES,cell number change [%],AC50 [1],AC50 [2]
Cc1c(NC(=S)N/N=C\c2ccccc2O)c(=O)n(-c2ccccc2)n1C,20,"0.0291 µM [rising, full curve, poor fit]",–
C=CCn1c(COc2ccc(Cl)cc2)nnc1SCC(=O)N1CC(=O)Nc2ccccc21,24.6,"0.291 µM [rising, partial curve, poor fit]","29.1 µM [rising, partial curve, poor fit]"
Cc1ccc(C)c(S(=O)(=O)N2CCN(C(=O)CCCc3c[nH]c4ccccc34)CC2)c1,-55.8,"20.6 µM [falling, partial curve, poor fit]","5.17 µM [falling, single point]"
Cn1[nH]c(CSc2ccc(Cl)cc2)cc1=O,-32.6,–,–
O=[N+]([O-])c1cc(C(F)(F)F)ccc1NCCCCNS(=O)(=O)c1ccc2ccccc2c1,-25.2,–,"0.184 µM [falling, full curve]"
CCOc1cc(C(C(=O)NCC2CCCO2)N(C(=O)Cn2nnc3ccccc32)c2ccc(C(C)=O)cc2)ccc1O (centres undefined),-13.5,"0.116 µM [falling, full curve, poor fit]",–
Cc1noc(C)c1S(=O)(=O)N1CCC(C(=O)NCCC2=CCCCC2)CC1,-15.3,"2.31 µM [falling, partial curve]","18.4 µM [falling, partial curve]"
C[C@H]1CCC(=O)N(CCSc2ccc(Br)cc2)CC1,-7.55,–,"4.61 µM [falling, single point]"
Cc1ccc(S(=O)(=O)N(Cc2cccc(Cl)c2)C(=O)N2CCN(C)CC2)cc1,11.9,"0.082 µM [falling, full curve]","0.13 µM [falling, full curve]"
NC(=O)COc1c(-c2ccc(Br)o2)oc2ccccc2c1=O,-16.5,–,"16.4 µM [falling, partial curve, poor fit]"
CC(c1ccco1)N(C(=O)c1ccccc1NS(=O)(=O)c1cc([N+](=O)[O-])ccc1Cl)c1ccccn1 (centres undefined),11.1,–,–
COc1ccccc1NS(=O)(=O)c1cc(-c2cnc(C3CC3)o2)ccc1C,-19.2,–,"0.82 µM [falling, full curve]"
Cn1cnnc1SCC(=O)c1ccc2c(c1)CCCC2,-4.37,–,"0.0731 µM [rising, full curve, poor fit]"
CC(OC(=O)c1ccco1)C(=O)NCc1ccc2c(c1)OCO2 (centres undefined),-5.13,–,"0.731 µM [rising, single point]"
COc1cccc2c1-c1c(O)cccc1C2=O,19.9,–,–
COc1cc(/C=N/NC(=O)c2nonc2N)cc(OC)c1OC,15.4,"1.84 µM [falling, partial curve, poor fit]",–
Cc1cc(-n2c(SCC(=O)Nc3ccc(F)c(F)c3)nc3n[nH]c(C)c3c2=N)ccc1Cl,-14.3,–,"29.1 µM [falling, single point]"
C[C@]1(OC(=O)/C=C/c2ccccc2)C[C@@H](O)[C@]2(O)C=CO[C@@H](O[C@@H]3O[C@H](CO)[C@@H](O)[C@H](O)[C@H]3O)[C@@H]21,-6.67,–,"2.91 µM [falling, partial curve, poor fit]"
COc1ccc(C(=O)OCC(=O)c2ccc[nH]2)cc1,6.37,"6.51 µM [falling, single point]","6.51 µM [falling, single point]"
O=C(COc1ccc(S(=O)(=O)N2CCCCC2)cc1)NCc1ccncc1,0.676,–,"16.4 µM [rising, single point]"
O=C(Nc1ccc(-c2n[nH]c(=S)o2)cc1)c1ccccc1,45.8,–,–
COc1ccc(-c2nc(-c3cccc(C(F)(F)F)c3)no2)cc1OC,68.2,"16.4 µM [rising, partial curve]","23.1 µM [rising, single point]"
Cc1ccc(S(=O)(=O)NCCC(=O)N2CCCCCCC2)cc1C,–,"2.06 µM [falling, partial curve]","1.3 µM [falling, full curve]"
Clc1ccc(-c2nnsc2SCc2ccccc2)cc1,47.8,"29.1 µM [rising, single point]",–
Cc1ccccc1NC(=O)Cn1c(O)c(N=NC(=O)c2ccccc2O)c2ccccc21,-0.576,–,–
Cc1ccc(-n2nc(C)c3c2NC2=C(C(=O)CC(C)(C)C2)C3c2ccccc2OCC(=O)O)cc1 (centres undefined),–,–,"0.0326 µM [rising, full curve, poor fit]"
Cc1nc2sccn2c(=O)c1S(=O)(=O)NCCc1ccccc1,-3.46,–,–
Cc1sc(NC(=O)c2ccco2)nc1-c1ccccc1,–,"0.58 µM [rising, partial curve, poor fit]","1.64 µM [rising, partial curve]"

SMILES,cell number change [%],AC50 [1],AC50 [2]
O=P(OCC1CC1)(c1ccccc1)c1ccccc1,10.3,–,"0.517 µM [falling, single point]"
O=[N+]([O-])c1cc(C(F)(F)F)cc([N+](=O)[O-])c1NN=C1CCCCC1,-40.7,"29.1 µM [falling, single point]","20.6 µM [falling, single point]"
O=C(/C=C/c1ccccc1[N+](=O)[O-])N1CCN(c2ccccc2F)CC1,-6.69,–,"0.326 µM [falling, full curve]"
CCC(CO)N=C1CC(C)(C)CC(=O)/C1=C(/O)CCCN1C(=O)c2ccccc2C1=O (centres undefined),73.7,"29.1 µM [rising, single point]","29.1 µM [rising, partial curve]"
O=C(NCc1ccco1)/C(=C\c1cccs1)NC(=O)c1cccs1,39.5,"8.2 µM [rising, partial curve]","1.84 µM [rising, partial curve, poor fit]"
CCn1c(SCC(=O)N(C)CC(=O)Nc2cccc(OC)c2)nnc1-c1ccco1,11.5,–,–
C=CCn1c(CSCc2ccc(Cl)cc2Cl)nnc1SCC(=O)Nc1ccc(C(=O)O)cc1,-19.1,"3.66 µM [falling, single point]",–
COC(=O)Nc1ccc(S(=O)(=O)N2CCCC(C(=O)N3CCCCC3)C2)cc1 (centres undefined),12,–,–
Cc1c(N=Cc2cccs2)c(=O)n(-c2ccccc2)n1C,-13.4,–,–
COc1ccc(CNC(=O)CCS(=O)(=O)c2ccc3c(c2)oc(=O)n3C)cc1,-0.885,–,–
Cc1ccc(S(=O)(=O)N(CC(=O)Nc2cccnc2)c2ccccc2C)cc1,-20,–,"0.206 µM [falling, single point]"
COc1ccccc1CNC(=O)CCN1C(=O)COc2ccc(C)cc21,48.4,"29.1 µM [rising, single point]","29.1 µM [rising, single point]"
O=C(NC1CC(=O)N(c2ccc(F)cc2)C1)C(=O)c1c[nH]c2ccccc12 (centres undefined),35.2,"9.2 µM [rising, partial curve, poor fit]","32.6 µM [rising, single point]"
CCOC(=O)C1C(c2ccc(O)c(OCC)c2)NC(=S)NC1(O)C(F)(F)F (centres undefined),–,–,"2.31 µM [rising, full curve]"
Cc1ccc(CNC(=O)C2CC(c3ccc(C(F)(F)F)cc3)=NO2)o1 (centres undefined),-4.58,–,"0.146 µM [falling, full curve, poor fit]"
CN1CCN(S(=O)(=O)c2ccc(-c3ccc(Cl)cc3)cc2)CC1,-19.8,–,–
COc1cc(OC)cc(C(=O)NCC(=O)OCC(=O)/C=C2/N(C)c3ccccc3C2(C)C)c1,-60,"29.1 µM [falling, single point]","29.1 µM [falling, partial curve, poor fit]"
Cc1ccc2nc(-c3ccc(NS(=O)(=O)c4ccc(F)cc4)cc3)sc2c1,-64.7,"29.1 µM [falling, single point]","29.1 µM [falling, partial curve, poor fit]"
CCOc1cccc2c1OC1(C)CC2NC(=O)N1c1ccc(OC)cc1 (centres undefined),-112,"23.1 µM [falling, partial curve]","20.6 µM [falling, partial curve]"
O=C1[C@H]2[C@@H](c3ccc(Cl)cc3)N3C(=O)N(c4cccc(F)c4)C(=O)[C@@]3(Cc3ccccc3)[C@H]2C(=O)N1C1CCCCC1,1.06,–,"3.66 µM [rising, single point]"
CNC(=S)Nc1ccc(Br)cc1,-11.8,–,"0.651 µM [falling, full curve, poor fit]"
Cn1nc(C(F)(F)F)c(-c2cccc(C(F)(F)F)c2)c1NC(=O)c1cccnc1,-19.3,–,–
CC(=O)Nc1cc(C(=O)OCC(=O)c2ccccc2)ccc1C,20.8,–,"0.164 µM [rising, partial curve, poor fit]"
O=C(CCc1nc(-c2cccs2)no1)NCc1ccc(F)cc1Cl,-22.9,"0.146 µM [falling, full curve]","0.731 µM [falling, full curve]"
N#CC[n+]1cc(-c2ccc(Cl)cc2)n2c1CCC2,-29.2,"4.11 µM [falling, full curve, poor fit]","29.1 µM [falling, single point]"
CN(Cc1ccc(Cl)cc1)C(=O)CNC(=O)C12CC3CC(CC(C3)C1)C2,-31.7,"5.8 µM [falling, full curve, poor fit]","5.8 µM [falling, full curve]"
O=C(COC(=O)CCSc1ccc(Cl)cc1)NCc1ccco1,30.8,"25.1 µM [rising, single point]","22.4 µM [rising, partial curve, poor fit]"

# In another format: two of the compounds above
SMILES	cell number change [%]	AC50 [1]	AC50 [2]
COc1cccc2c1-c1c(O)cccc1C2=O	19.9	–	–
COc1cc(/C=N/NC(=O)c2nonc2N)cc(OC)c1OC	15.4	1.84 µM [falling, partial curve, poor fit]	–
